Here are results for 1 sequence from patent US7745410B2 (Kyungpook National University Industry-Academica …, priority 2006, dated 2010).

The series in a line: peptide made by a vendor. The following applies: whole synthesis.

Plain letter strings leave the end groups untold.

Turning to “CSNRDARRC (Bladder Tumor-Targeting Peptide 1)”, the “purity (crude or final not stated)” value is 85% or higher.
